According to article PMC8315076:
These are yes or no findings as the source states them, for the method shown. In cells and extracts the contact can be indirect. Some entries that bind do so weakly or less than the wild type.

Amino acid sequences for entries named in this document (tags omitted).
UniProt Q15717: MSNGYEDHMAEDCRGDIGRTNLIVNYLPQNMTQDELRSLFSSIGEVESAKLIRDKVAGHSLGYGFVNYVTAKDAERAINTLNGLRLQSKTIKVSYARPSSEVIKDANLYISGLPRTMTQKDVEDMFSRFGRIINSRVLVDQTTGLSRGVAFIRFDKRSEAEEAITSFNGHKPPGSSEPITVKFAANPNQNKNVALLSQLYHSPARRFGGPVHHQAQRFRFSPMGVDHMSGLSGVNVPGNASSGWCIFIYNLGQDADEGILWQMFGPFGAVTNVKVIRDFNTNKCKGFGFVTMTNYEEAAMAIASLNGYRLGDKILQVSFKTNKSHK

Biological target: ELAV like RNA-binding protein 1 (ELAVL1) (human (endogenous in PC3)) (UniProt Q15717)
Experiment: co-IP; lysates of PCa cells (control or METTL3 knockdown by sh-METTL3) immunoprecipitated with anti-ELAVL1, blots probed with anti-USP4

B1: USP4 (enzyme, UniProt Q13107 1-963)
chain: MAEGGGCRERPDAETQKSELGPLMRTTLQRGAQWYLIDSRWFKQWKKYVGFDSWDMYNVGEHNLFPGPIDNSGLFSDPESQTLKEHLIDELDYVLVPTEAWNKLLNWYGCVEGQQPIVRKVVEHGLFVKHCKVEVYLLELKLCENSDPTNVLSCHFSKADTIATIEKEMRKLFNIPAERETRLWNKYMSNTYEQLSKLDNTVQDAGLYQGQVLVIEPQNEDGTWPRQTLQSKSSTAPSRNFTTSPKSSASPYSSVSASLIANGDSTSTCGMHSSGVSRGGSGFSASYNCQEPPSSHIQPGLCGLGNLGNTCFMNSALQCLSNTAPLTDYFLKDEYEAEINRDNPLGMKGEIAEAYAELIKQMWSGRDAHVAPRMFKTQVGRFAPQFSGYQQQDSQELLAFLLDGLHEDLNRVKKKPYLELKDANGRPDAVVAKEAWENHRLRNDSVIVDTFHGLFKSTLVCPECAKVSVTFDPFCYLTLPLPLKKDRVMEVFLVPADPHCRPTQYRVTVPLMGAVSDLCEALSRLSGIAAENMVVADVYNHRFHKIFQMDEGLNHIMPRDDIFVYEVCSTSVDGSECVTLPVYFRERKSRPSSTSSASALYGQPLLLSVPKHKLTLESLYQAVCDRISRYVKQPLPDEFGSSPLEPGACNGSRNSCEGEDEEEMEHQEEGKEQLSETEGSGEDEPGNDPSETTQKKIKGQPCPKRLFTFSLVNSYGTADINSLAADGKLLKLNSRSTLAMDWDSETRRLYYDEQESEAYEKHVSMLQPQKKKKTTVALRDCIELFTTMETLGEHDPWYCPNCKKHQQATKKFDLWSLPKILVVHLKRFSYNRYWRDKLDTVVEFPIRGLNMSEFVCNLSARPYVYDLIAVSNHYGAMGVGHYTAYAKNKLNGKWYYFDDSNVSLASEDQIVTKAAYVLFYQRRDDEFYKTPSLSSSGSSDGGTRPSSSQQGFGDDEACSMDTN
For B1, which binding is on record?
Its binding is “binds”.
